# Laboratory results reported in the supplement of paper PMC12819154, “High-throughput peptide-centric local stability assay extends protein–ligand identification to membrane proteins, tissues and bacteria” (Nature Structural & Molecular Biology, 2025).
# Chains of the proteins cited; added tags and fusions are not shown. Lines headed by an entry give the natural chain unless they say otherwise; changes in a name come on top.
# UniProt Q96IV0: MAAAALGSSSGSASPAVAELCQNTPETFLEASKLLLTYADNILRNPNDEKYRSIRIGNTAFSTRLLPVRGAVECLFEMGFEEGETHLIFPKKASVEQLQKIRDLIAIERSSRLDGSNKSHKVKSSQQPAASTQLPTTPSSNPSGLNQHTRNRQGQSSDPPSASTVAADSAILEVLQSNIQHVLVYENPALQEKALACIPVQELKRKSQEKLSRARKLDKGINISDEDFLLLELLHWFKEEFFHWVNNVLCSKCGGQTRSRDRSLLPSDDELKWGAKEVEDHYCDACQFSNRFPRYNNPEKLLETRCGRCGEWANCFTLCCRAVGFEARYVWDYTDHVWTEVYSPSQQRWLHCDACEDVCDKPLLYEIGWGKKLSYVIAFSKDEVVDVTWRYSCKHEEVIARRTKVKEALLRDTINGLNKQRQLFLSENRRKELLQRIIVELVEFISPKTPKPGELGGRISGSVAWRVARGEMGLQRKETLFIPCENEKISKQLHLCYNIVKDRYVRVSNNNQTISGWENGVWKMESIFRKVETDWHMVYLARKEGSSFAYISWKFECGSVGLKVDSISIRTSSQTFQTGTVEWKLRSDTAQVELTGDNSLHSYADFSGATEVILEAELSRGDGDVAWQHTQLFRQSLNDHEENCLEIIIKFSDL
# UniProt Q96KQ7: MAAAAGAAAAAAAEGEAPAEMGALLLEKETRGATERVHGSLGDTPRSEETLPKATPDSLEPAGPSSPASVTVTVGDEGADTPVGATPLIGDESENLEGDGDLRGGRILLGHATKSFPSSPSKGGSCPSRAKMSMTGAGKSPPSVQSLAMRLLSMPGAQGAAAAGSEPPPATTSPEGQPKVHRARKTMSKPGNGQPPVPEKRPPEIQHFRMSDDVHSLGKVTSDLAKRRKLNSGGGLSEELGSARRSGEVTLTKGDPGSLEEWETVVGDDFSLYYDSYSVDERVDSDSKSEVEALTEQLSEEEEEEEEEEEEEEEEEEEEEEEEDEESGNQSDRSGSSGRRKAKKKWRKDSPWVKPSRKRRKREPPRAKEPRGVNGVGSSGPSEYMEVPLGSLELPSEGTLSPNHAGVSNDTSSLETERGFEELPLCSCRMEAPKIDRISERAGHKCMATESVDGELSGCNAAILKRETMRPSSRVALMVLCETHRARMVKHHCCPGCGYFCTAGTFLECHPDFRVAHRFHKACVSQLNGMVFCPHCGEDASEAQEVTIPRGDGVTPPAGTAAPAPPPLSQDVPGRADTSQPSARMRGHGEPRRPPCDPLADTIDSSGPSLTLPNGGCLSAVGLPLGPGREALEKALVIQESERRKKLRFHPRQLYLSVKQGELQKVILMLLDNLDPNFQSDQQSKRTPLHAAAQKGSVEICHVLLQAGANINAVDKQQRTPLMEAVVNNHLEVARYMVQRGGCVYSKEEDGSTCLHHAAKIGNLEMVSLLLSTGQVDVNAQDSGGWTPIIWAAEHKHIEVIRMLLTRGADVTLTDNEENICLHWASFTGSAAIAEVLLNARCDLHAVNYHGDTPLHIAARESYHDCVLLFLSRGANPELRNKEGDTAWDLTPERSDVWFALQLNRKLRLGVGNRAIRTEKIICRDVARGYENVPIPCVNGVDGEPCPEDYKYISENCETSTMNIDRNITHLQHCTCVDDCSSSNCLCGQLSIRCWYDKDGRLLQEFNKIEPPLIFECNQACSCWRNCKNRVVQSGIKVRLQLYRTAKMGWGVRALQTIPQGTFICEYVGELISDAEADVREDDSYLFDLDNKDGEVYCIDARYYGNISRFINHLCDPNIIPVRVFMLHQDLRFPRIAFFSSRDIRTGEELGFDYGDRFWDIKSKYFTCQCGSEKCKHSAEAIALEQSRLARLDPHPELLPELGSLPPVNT
# UniProt Q96Q11: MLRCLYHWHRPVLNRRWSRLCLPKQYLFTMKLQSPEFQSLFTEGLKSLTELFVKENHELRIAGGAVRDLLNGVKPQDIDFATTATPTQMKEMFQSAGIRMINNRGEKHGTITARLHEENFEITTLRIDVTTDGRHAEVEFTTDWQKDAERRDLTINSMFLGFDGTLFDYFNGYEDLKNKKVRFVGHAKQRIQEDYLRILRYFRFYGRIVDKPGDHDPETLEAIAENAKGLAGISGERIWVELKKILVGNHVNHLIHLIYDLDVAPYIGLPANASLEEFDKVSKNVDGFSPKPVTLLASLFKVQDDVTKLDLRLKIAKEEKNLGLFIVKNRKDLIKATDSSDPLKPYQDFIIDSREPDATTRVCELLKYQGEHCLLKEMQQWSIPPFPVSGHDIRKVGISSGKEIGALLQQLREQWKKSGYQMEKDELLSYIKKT
# UniProt Q96MK2: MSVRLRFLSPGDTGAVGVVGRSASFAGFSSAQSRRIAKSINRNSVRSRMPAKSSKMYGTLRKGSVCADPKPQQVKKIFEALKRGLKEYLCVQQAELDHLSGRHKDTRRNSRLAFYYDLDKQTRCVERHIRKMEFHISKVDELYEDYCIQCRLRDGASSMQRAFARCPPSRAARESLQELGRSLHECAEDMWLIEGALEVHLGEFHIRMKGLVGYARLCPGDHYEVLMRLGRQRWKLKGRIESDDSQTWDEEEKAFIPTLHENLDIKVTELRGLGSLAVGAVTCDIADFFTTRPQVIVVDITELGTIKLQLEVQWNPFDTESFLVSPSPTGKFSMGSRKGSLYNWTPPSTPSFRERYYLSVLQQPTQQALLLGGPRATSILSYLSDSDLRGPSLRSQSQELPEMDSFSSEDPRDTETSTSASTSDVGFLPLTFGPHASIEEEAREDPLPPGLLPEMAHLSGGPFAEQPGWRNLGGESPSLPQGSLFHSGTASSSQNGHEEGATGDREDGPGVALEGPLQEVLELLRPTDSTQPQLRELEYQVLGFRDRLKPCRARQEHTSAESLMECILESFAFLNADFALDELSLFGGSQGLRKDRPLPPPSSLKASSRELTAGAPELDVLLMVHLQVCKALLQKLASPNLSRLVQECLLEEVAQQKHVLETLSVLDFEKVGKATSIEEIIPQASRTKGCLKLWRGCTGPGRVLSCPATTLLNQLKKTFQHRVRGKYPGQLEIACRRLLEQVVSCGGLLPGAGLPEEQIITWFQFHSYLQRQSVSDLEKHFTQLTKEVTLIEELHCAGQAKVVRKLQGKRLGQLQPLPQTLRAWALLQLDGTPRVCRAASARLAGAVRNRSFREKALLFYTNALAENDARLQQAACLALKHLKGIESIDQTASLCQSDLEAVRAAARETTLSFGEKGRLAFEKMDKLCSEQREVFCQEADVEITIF
# UniProt Q96RN5: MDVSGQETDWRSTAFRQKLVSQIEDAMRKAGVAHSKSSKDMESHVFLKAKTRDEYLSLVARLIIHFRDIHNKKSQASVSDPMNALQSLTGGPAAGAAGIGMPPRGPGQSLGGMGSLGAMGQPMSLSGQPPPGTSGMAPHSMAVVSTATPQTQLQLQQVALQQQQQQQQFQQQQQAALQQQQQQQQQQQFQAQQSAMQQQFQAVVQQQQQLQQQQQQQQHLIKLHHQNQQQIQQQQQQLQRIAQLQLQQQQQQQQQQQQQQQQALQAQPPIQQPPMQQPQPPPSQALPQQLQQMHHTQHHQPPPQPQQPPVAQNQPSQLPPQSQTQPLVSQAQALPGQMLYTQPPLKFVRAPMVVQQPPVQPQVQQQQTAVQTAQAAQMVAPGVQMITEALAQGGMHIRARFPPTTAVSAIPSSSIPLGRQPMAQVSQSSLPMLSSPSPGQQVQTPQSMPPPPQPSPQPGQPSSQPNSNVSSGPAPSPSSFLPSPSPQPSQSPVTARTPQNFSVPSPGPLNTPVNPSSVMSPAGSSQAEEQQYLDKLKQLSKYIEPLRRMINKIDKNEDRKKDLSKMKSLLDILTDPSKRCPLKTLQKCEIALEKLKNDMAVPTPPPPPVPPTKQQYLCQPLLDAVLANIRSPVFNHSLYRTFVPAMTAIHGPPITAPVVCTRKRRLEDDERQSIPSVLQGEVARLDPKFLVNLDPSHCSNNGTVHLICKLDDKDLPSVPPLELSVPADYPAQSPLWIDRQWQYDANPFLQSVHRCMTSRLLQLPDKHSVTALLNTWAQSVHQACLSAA
# UniProt Q96QF0: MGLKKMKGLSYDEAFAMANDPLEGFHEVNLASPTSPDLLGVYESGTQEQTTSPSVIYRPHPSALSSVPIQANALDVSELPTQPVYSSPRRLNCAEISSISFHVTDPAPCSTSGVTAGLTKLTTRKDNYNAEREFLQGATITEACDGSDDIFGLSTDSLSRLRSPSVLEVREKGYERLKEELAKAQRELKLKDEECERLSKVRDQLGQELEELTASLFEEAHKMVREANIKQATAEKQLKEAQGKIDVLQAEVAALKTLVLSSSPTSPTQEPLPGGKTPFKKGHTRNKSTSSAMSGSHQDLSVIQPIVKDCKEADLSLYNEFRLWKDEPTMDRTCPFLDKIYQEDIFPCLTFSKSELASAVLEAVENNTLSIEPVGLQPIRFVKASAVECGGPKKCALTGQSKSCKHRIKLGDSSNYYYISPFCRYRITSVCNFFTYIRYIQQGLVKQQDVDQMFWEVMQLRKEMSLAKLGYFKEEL
# UniProt Q96N66: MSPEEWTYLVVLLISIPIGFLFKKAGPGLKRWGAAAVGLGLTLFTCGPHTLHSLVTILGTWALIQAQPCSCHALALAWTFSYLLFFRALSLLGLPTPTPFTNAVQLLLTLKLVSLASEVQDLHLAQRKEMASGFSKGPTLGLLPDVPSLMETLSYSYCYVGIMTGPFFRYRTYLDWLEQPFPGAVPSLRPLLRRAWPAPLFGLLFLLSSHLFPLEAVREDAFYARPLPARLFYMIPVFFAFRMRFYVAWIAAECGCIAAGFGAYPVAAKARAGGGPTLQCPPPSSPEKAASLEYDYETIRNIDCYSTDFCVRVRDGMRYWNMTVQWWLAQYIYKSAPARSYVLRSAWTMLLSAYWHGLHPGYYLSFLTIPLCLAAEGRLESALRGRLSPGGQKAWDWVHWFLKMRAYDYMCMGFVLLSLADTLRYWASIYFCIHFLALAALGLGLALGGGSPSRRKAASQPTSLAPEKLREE
# UniProt Q96SB3: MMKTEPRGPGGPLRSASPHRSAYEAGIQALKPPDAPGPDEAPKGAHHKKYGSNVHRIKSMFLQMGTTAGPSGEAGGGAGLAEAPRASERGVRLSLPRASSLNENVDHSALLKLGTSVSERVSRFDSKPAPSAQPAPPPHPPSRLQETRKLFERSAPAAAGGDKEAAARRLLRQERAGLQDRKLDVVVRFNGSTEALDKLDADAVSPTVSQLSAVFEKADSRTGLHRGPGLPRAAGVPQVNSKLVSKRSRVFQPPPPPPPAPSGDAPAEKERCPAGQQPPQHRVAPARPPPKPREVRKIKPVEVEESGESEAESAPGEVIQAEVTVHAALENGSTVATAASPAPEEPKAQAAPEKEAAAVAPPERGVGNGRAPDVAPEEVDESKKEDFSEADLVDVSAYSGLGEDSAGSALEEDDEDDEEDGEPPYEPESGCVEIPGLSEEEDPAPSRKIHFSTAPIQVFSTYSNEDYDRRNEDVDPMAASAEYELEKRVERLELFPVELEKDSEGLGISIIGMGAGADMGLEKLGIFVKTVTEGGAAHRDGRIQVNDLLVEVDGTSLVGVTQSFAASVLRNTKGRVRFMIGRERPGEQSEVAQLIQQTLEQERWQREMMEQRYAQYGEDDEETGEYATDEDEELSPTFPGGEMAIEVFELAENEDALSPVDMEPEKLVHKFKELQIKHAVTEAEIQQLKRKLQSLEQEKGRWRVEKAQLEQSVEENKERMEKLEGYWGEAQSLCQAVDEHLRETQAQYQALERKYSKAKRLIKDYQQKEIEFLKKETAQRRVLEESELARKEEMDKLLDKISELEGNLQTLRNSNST
# The list shows a part of the results. Most entries show no effect beyond the scatter of the controls.
# Compound: CN[C@@H]1C[C@H]2O[C@@](C)([C@@H]1OC)n1c3ccccc3c3c4c(c5c6ccccc6n2c5c31)C(=O)NC4 [staurosporine]
# Test: log2 fold change of tryptic peptide abundance, ligand vs vehicle (limited proteolysis) (log2 ratio); higher = more trypsin-susceptible (destabilized)
# Conditions: ligand concentration: 20 uM; sample: K562 cleared lysate; digestion: 4 min, 22 C (HT-PELSA RT4min, Orbitrap Astral)
row,Target,log2 fold change
1,"NGLY1 (peptide sequence: YSCKHEEVIAR, peptide start residue: 391) (UniProt Q96IV0)",0.315
2,"EHMT2 (peptide sequence: ADTSQPSAR, peptide start residue: 576) (UniProt Q96KQ7)",-0.189
3,"TRNT1 (peptide sequence: EMFQSAGIR, peptide start residue: 91) (UniProt Q96Q11)",0.544
4,"UniProt Q96MK2 (peptide sequence: RLGQLQPLPQTLR, peptide start residue: 810)",-0.621
5,"MED15 (peptide sequence: LVSQIEDAMRK, peptide start residue: 19) (UniProt Q96RN5)",0.191
6,"RAB3IP (peptide sequence: TLVLSSSPTSPTQEPLPGGKTPFKK, peptide start residue: 257) (UniProt Q96QF0)",0.323
7,"MBOAT7 (peptide sequence: KAASQPTSLAPEK, peptide start residue: 456) (UniProt Q96N66)",-0.2
8,"PPP1R9B (peptide sequence: EIEFLKK, peptide start residue: 769) (UniProt Q96SB3)",-0.506
